Data on 26 targets can be found in the supplement of paper PMC10849652.

By UniProt entry, the sequences of proteins in these tests, tags left out. Where a name states a change or a piece, a line headed by the entry shows the natural chain unless it says otherwise.
UniProt Q9BW66: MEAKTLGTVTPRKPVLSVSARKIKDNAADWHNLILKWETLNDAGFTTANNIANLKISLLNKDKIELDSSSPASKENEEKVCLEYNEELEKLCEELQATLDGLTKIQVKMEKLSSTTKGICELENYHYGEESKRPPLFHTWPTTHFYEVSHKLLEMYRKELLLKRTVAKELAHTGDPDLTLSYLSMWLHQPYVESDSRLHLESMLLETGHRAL
UniProt O14647: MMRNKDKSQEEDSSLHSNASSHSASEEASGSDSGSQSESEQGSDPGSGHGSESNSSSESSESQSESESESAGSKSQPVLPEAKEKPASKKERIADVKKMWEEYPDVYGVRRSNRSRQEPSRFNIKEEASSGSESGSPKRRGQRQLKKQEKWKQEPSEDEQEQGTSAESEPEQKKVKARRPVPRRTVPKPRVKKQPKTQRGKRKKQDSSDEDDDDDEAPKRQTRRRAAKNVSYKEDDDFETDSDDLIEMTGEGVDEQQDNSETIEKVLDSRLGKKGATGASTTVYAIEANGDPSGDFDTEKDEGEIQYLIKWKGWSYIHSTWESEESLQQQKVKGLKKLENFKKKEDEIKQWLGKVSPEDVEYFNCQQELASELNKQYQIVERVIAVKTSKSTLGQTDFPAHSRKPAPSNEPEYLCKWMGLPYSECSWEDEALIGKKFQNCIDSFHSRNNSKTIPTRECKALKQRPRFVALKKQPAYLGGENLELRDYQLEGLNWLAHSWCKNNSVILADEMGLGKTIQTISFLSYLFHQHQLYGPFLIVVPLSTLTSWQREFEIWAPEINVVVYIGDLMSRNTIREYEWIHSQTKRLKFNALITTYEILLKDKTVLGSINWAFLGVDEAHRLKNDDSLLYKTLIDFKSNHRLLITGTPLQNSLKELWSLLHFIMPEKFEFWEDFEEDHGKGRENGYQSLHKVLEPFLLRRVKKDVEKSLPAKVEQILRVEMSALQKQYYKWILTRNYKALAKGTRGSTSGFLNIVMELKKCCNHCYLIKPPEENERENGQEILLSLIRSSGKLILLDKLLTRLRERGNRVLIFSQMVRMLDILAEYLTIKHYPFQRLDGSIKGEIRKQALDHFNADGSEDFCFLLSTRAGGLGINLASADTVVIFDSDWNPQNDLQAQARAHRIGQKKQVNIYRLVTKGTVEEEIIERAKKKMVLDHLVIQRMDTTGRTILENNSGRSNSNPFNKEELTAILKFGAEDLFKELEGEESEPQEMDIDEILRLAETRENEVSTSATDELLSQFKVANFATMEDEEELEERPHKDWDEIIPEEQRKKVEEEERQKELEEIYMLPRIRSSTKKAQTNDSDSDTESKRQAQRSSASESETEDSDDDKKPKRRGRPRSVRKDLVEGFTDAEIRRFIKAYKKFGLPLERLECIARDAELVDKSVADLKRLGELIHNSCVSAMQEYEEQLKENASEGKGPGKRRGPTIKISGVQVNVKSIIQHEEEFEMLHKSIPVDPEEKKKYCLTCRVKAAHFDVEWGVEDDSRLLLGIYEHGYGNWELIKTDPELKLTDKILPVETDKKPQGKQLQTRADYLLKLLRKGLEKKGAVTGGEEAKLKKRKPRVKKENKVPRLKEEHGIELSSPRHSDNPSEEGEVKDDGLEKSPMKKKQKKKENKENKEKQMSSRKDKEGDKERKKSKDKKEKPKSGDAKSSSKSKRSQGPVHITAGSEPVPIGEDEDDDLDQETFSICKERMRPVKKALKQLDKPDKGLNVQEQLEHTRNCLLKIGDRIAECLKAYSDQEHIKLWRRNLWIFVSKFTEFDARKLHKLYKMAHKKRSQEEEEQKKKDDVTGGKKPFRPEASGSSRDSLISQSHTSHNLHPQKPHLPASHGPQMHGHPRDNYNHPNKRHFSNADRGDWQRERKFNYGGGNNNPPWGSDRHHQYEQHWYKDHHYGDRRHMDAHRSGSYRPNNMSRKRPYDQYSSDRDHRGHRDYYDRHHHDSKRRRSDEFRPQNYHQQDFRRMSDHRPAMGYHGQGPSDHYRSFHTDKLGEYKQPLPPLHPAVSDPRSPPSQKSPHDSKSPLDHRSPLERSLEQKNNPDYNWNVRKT
UniProt O75122: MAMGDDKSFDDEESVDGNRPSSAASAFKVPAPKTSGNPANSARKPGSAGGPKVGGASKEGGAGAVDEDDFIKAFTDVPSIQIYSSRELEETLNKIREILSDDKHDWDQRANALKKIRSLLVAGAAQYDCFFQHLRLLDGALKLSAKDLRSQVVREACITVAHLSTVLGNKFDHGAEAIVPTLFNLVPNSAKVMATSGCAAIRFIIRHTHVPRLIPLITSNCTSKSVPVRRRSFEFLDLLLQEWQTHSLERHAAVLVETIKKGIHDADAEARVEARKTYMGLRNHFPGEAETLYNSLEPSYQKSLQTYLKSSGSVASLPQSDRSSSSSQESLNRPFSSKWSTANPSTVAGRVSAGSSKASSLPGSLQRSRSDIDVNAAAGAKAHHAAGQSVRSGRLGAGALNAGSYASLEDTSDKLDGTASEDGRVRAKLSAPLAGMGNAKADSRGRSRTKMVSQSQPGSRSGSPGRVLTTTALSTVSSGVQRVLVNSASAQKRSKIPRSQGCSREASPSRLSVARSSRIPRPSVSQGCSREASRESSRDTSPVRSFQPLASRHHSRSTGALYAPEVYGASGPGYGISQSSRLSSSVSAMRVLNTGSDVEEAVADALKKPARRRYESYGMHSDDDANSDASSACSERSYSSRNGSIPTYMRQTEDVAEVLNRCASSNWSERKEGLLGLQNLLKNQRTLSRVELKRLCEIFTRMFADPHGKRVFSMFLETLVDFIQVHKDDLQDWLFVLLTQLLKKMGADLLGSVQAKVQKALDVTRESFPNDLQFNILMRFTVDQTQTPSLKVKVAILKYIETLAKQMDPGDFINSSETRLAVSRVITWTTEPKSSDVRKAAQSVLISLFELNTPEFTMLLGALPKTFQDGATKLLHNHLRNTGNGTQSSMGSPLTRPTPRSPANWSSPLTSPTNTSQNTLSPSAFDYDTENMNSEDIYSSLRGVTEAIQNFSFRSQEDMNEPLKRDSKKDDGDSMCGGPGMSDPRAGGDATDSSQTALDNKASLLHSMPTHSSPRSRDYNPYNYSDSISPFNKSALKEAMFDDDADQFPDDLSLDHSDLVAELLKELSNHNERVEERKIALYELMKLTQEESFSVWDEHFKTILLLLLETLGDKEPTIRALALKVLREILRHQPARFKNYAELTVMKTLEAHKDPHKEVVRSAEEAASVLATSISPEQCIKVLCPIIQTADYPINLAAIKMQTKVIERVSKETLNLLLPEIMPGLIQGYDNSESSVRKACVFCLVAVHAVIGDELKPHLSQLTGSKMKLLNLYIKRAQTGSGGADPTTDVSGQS
UniProt Q8N0X4: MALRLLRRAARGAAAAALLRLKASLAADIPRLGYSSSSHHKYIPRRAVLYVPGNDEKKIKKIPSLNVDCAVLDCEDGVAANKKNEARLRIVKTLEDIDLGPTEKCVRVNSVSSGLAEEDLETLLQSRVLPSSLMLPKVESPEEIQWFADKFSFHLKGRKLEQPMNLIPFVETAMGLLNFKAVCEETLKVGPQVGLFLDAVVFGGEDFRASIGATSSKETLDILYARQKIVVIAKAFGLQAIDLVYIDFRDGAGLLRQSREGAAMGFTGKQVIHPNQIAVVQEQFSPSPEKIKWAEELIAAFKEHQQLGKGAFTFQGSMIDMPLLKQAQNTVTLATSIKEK
UniProt Q9BUK0: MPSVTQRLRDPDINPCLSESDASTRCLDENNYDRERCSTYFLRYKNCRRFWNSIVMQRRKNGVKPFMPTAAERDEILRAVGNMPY
UniProt Q8TD26: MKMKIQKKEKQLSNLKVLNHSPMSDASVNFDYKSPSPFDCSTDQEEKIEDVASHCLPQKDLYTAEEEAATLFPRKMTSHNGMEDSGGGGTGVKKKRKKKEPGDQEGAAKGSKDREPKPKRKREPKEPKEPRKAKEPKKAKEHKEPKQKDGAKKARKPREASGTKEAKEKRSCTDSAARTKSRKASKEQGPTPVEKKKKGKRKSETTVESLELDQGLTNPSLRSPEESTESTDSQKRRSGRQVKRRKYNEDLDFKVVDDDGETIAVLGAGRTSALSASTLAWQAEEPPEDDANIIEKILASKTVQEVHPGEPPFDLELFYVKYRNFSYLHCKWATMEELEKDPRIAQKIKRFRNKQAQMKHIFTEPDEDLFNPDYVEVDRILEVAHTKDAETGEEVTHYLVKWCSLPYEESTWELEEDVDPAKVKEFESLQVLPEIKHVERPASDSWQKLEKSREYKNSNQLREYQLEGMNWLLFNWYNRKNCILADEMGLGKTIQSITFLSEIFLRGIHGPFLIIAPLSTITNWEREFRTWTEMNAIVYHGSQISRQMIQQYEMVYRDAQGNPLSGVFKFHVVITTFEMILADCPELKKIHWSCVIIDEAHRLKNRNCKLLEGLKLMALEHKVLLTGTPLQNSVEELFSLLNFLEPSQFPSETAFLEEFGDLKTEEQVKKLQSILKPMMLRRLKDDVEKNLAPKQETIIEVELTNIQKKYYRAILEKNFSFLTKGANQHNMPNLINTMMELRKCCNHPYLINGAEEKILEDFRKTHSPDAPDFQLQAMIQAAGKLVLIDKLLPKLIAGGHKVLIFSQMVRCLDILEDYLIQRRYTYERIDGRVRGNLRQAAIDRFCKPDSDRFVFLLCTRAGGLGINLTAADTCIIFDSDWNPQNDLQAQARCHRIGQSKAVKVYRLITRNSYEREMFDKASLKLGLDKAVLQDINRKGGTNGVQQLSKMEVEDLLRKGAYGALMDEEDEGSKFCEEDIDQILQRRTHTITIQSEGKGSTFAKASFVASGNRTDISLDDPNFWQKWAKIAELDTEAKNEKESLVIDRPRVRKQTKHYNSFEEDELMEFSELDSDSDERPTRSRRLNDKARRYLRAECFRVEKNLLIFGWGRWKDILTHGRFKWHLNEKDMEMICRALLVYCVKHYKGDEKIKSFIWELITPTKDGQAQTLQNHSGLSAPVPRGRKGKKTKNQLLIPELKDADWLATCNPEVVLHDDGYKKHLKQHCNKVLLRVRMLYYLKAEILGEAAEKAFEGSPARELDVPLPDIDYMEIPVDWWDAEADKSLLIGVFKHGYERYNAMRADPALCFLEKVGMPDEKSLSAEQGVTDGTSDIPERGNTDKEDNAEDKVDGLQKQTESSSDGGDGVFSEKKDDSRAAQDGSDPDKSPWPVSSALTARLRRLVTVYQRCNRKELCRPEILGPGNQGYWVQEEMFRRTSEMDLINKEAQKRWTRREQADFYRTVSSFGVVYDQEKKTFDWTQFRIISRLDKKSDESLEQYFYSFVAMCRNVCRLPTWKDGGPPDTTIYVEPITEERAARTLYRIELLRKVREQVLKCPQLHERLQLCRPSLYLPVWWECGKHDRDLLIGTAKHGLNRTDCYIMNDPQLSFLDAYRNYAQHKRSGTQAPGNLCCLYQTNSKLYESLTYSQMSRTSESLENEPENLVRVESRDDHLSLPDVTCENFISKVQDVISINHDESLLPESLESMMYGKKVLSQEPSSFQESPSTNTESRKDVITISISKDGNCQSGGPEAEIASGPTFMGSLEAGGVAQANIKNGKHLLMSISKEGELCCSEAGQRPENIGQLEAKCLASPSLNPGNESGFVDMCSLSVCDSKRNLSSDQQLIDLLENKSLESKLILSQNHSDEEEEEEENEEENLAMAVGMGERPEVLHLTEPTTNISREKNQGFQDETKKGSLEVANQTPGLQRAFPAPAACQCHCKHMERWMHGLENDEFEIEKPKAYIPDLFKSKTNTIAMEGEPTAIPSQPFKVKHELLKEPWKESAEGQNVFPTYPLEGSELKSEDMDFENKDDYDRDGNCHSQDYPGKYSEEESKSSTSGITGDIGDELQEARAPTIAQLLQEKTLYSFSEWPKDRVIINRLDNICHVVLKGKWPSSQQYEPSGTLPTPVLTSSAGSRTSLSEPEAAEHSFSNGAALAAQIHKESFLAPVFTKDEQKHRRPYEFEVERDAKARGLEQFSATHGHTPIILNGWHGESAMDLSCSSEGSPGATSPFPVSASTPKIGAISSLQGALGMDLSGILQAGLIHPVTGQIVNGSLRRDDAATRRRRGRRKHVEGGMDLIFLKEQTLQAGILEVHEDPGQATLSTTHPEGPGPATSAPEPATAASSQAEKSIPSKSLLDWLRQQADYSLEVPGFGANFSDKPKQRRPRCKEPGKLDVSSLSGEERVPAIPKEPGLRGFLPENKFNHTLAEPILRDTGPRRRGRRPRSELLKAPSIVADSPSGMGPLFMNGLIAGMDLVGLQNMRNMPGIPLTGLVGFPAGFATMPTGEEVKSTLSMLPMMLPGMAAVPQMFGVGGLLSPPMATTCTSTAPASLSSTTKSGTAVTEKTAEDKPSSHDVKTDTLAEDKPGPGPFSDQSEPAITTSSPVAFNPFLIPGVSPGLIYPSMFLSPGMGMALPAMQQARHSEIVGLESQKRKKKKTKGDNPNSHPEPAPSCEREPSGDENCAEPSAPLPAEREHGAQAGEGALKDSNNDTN
UniProt Q9BSY4: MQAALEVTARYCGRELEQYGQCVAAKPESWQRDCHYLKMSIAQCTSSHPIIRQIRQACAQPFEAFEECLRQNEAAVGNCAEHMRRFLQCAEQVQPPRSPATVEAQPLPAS

The list shows a part of the results.

Compound in the first experiment: C1=CC2=NC=CN=C2C=C1/C=C/3\C(=O)NC(=O)S3
Kind of experiment: log2 fold change, soluble protein after heating vs DMSO (PISA); higher = thermal stabilisation; K562 lysate, 10 uM; active = over 0.2 and 3.5 SD of the protein, either way, in both replicates (recomputed). In a few lines: (§1)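 A 30 min treatment with 10 μM compound was applied to crude K562 extract at 1 mg/mL protein in PBS pH 7.4 with 1 mM MgCl2. Heating for 3 min spanned 48°C-58°C, after which aliquots were pooled, adjusted to 0.5% NP-40 at 4°C and spun at 21,000xg for 90 min. TMTpro 16plex LC-MS/MS of the supernatant, with channel sums equalised, gave values recorded as log-two fold change in thermal stability against solvent controls, from duplicates.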
For the target CINP isoform 3 (UniProt Q9BW66), the log2 fold change is inactive: -0.015.

Consider CHPT1 (UniProt Q8WUD6), for which the log2 fold change is inactive: -0.089.

CHD2 (UniProt O14647): the log2 fold change is inactive: 0.019.

Take CKAP4 (UniProt Q07065): the log2 fold change was inactive: -0.015.

For the target CLASP2 (UniProt O75122), the log2 fold change is inactive: -0.225.

In the case of CIC (UniProt I3L1Q4), the log2 fold change was inactive: -0.03.

For CHMP4A (UniProt H0YIN6), the log2 fold change was inactive: 0.06.

For CLYBL (UniProt Q8N0X4), the log2 fold change was inactive: -0.135.

CHCHD7 isoform 4 (UniProt Q9BUK0): the log2 fold change is inactive: 0.014.

As for CLINT1 (UniProt Q14677), the log2 fold change is inactive: -0.086.

As to CHD6 (UniProt Q8TD26), the log2 fold change is inactive: -0.011.

In the case of CHST2 (UniProt Q9Y4C5), the log2 fold change is inactive: 0.171.

As to CLUL1 (UniProt Q15846), the log2 fold change is inactive: -0.352.

Compound in a further experiment: C1=CC=C(C=C1)C2=NC(=C(N2)C3=CC=NC=C3)C4=CC(=C(C=C4)Cl)O
Described as above. The essentials: as §1
Consider CINP isoform 3 (UniProt Q9BW66), for which the log2 fold change is inactive: 0.081.

On to CHPT1 (UniProt Q8WUD6), for which the log2 fold change was inactive: 0.067.

As for CLIP1, A0A3B3ITA2, the log2 fold change is inactive: -0.039.

In the case of CIR1 (UniProt Q86X95), the log2 fold change was inactive: -0.162.

For CHD2 (UniProt O14647), the log2 fold change is inactive: 0.089.

Regarding CHTF18 (UniProt Q8WVB6), the log2 fold change was inactive: 0.038.

Consider CHCHD5 (UniProt Q9BSY4), for which the log2 fold change was inactive: -0.146.

Consider CLASP2 (UniProt O75122), for which the log2 fold change is inactive: -0.044.

CHD4, A0A2R8Y521: the log2 fold change was inactive: 0.259.

As for CLCN5 isoform 2 (UniProt P51795), the log2 fold change is inactive: 0.25.

With CLSTN1 (UniProt O94985), the log2 fold change was inactive: 0.037.

For the target CMTR2 (UniProt Q8IYT2), the log2 fold change was inactive: 0.042.

As for CHMP4A (UniProt H0YIN6), the log2 fold change is inactive: -0.055.

For the target CLYBL (UniProt Q8N0X4), the log2 fold change was inactive: 0.07.

Turning to CHCHD7 isoform 4 (UniProt Q9BUK0), the log2 fold change was inactive: 0.046.

CLSTN3 isoform 2 (UniProt Q9BQT9): the log2 fold change was inactive: 0.043.

On to CKLF (UniProt Q9UBR5), for which the log2 fold change was inactive: -0.151.

In the case of CHD6 (UniProt Q8TD26), the log2 fold change was inactive: -0.238.

Compound in a further experiment: C1=CC=C2C(=C1)C3=NNC4=CC=CC(=C43)C2=O
The description is as above. In a few lines: as §1
On to CINP isoform 3 (UniProt Q9BW66), for which the log2 fold change was inactive: -0.102.

Turning to CISH isoform 3 (UniProt Q9NSE2), the log2 fold change is inactive: 0.188.

Consider CLIP1, A0A3B3ITA2, for which the log2 fold change is inactive: -0.103.

On to CHD2 (UniProt O14647), for which the log2 fold change was inactive: -0.031.

Turning to CHIC1 (UniProt Q5VXU3), the log2 fold change was inactive: -0.037.

With CLASP2 (UniProt O75122), the log2 fold change was inactive: -0.059.

Turning to CKS2 (UniProt P33552), the log2 fold change was inactive: 0.104.

CLYBL (UniProt Q8N0X4): the log2 fold change was inactive: -0.231.

As to CHCHD7 isoform 4 (UniProt Q9BUK0), the log2 fold change was inactive: -0.012.

Consider CLINT1 (UniProt Q14677), for which the log2 fold change was inactive: 0.055.

Turning to CHD6 (UniProt Q8TD26), the log2 fold change is inactive: -0.165.

For the target CLUL1 (UniProt Q15846), the log2 fold change was inactive: 0.115.
